# Results: publication PMC10933668
# The chains behind the UniProt entries cited, without tags or fusion partners. Residues count along the entry.
# UniProt Q9NZQ7, 19-290: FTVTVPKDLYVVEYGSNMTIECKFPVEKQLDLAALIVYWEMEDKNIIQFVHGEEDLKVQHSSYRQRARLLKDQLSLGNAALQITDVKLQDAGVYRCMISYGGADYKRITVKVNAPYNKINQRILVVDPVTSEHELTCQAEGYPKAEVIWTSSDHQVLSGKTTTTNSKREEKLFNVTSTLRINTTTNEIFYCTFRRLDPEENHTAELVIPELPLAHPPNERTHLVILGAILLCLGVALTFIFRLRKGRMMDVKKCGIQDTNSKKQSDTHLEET
# UniProt Q13308, 31-1070: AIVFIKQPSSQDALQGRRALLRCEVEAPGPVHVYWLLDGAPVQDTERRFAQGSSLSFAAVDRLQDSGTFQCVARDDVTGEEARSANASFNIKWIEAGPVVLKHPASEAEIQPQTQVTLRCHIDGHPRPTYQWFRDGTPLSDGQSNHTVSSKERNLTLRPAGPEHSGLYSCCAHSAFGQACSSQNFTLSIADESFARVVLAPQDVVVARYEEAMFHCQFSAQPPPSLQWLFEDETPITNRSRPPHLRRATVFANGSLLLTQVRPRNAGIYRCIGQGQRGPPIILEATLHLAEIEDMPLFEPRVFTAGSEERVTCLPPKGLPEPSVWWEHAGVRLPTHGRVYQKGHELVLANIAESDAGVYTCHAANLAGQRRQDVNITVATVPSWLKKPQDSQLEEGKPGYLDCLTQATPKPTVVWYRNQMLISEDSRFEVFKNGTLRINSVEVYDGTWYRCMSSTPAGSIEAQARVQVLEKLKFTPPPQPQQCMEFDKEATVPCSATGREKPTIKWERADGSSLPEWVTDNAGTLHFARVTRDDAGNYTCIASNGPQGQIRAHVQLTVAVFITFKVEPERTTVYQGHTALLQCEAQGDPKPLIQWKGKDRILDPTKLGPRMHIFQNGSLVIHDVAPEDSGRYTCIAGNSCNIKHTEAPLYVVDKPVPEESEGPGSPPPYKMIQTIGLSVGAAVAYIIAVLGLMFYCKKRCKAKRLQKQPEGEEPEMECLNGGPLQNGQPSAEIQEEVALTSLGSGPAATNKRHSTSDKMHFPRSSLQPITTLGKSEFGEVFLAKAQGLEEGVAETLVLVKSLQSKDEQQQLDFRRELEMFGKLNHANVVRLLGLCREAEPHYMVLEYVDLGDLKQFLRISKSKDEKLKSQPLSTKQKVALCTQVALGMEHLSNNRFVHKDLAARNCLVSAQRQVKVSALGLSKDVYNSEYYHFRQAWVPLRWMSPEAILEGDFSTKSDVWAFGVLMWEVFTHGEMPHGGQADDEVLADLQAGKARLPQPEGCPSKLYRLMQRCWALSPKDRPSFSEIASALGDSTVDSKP
# Columns and labels:
# [1] = target: PD-L1 (PDL-1) (UniProt Q9NZQ7); experiment: flow cytometry; conditions: SKBR3 cells; Live-cell binding: about 1e5 cells in 200 uL D-PBS with 5 mM Mg2+, 37 C, 30 min, two washes, flow cytometry or confocal; protein on the cell surface; folded or branched DNA
# [2] = target: PTK7 (UniProt Q13308); experiment: confocal microscopy; conditions: Nalm6 and 697 cells; Live-cell binding: about 1e5 cells in 200 uL D-PBS with 5 mM Mg2+, 37 C, 30 min, two washes, flow cytometry or confocal; protein on the cell surface; label: FAM or Cy5 (5'); folded or branched DNA
# [3] = target: PTK7 (UniProt Q13308); experiment: flow cytometry; conditions: 5' phosphates, ligated into a circle by T4 DNA ligase, Live-cell binding: about 1e5 cells in 200 uL D-PBS with 5 mM Mg2+, 37 C, 30 min, two washes, flow cytometry or confocal, protein on the cell surface, folded or branched DNA
sequence,measurement,setting,value
ACAGGTTCTGGGGGGTGGGTGGGGAACCTGT [MJ5C],binding result,[1],binds
GTCTAACTGCTGCGCCGCCGGGAAAATACTGTACGGTTAGAC [Sgc8],binding result,[2],binds
TGACTGATTTACGACCACTACAGCTAGCTTAGGGTTGGGGGTTGGTTGGCAGGCTAATGGAGCTCGTGGT / CGTAAATCAGTCAGTCTAACTGCTGCGCCGCCGGGAAAATACTGTACGGTTAGAC [CAR-ap9s-sgc8 bispecific circular aptamer],binding result,[3]; CD19-KO-Nalm6 and CD19-KO-697 cells,binds
same,binding result,[3]; PTK7+ CCRF-CEM cells,binds

# Construct, isoform or probe ends are uncertain for at least one entry. At least one result comes from cells or an extract, where the contact may be indirect.
